Results deposited as PubChem BioAssay AID1159584 (Peter MacCallum Cancer Centre, 2016).
Screen: 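Knock-downs that harm CDH1-null cells more than parental MCF10A cells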 (primary screen). Cells: human MCF10A breast epithelial cells, parental and CDH1-null. Reagents: siRNA against human genes. Detection: 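ATP luminescence (CellTiter-Glo) viability per line relative to mean mock wells over all plates, and the ratio of CDH1-null to parental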. Reading the numbers: CDH1-null / parental viability ratio: higher = CDH1-null cells survive relatively better than parental; CDH1-null viability vs mock: higher = more viable CDH1-null cells; parental viability vs mock: higher = more viable parental cells.
Shown is one part, drawn at random, of about 18,000 reagents. The record does not give: the amount of reagent, the time to read-out.

| gene | CDH1-null / parental viability ratio | CDH1-null viability vs mock (fraction of mock) | parental viability vs mock (fraction of mock) |
| --- | --- | --- | --- |
| PRKDC (protein kinase, DNA-activated, catalytic subunit) | 0.78 | 0.74 | 0.95 |
| SPPL2A (signal peptide peptidase like 2A) | 1.16 | 0.86 | 0.74 |
| PICALM (phosphatidylinositol binding clathrin assembly protein) | 1.08 | 0.94 | 0.87 |
| HACD2 (3-hydroxyacyl-CoA dehydratase 2) | 1.28 | 0.87 | 0.68 |
| TPT1P8 (TPT1 pseudogene 8) | 1.22 | 0.88 | 0.72 |
| CHST10 (carbohydrate sulfotransferase 10) | 0.81 | 0.72 | 0.89 |
| FBXL18 (F-box and leucine rich repeat protein 18) | 1.04 | 1.08 | 1.04 |
| PRELP (proline and arginine rich end leucine rich repeat protein) | 0.97 | 0.62 | 0.64 |
| ZW10 (zw10 kinetochore protein) | 0.68 | 0.56 | 0.82 |
| MAP3K12 (mitogen-activated protein kinase kinase kinase 12) | 0.79 | 0.65 | 0.82 |
| TMEM106B (transmembrane protein 106B) | 0.87 | 0.46 | 0.53 |
| DES (desmin) | 1.15 | 0.94 | 0.82 |
| MRPL45 (mitochondrial ribosomal protein L45) | 1.2 | 0.85 | 0.71 |
| MAP7D1 (MAP7 domain containing 1) | 0.89 | 0.5 | 0.56 |
| TBC1D2 (TBC1 domain family member 2) | 0.88 | 0.38 | 0.43 |
| ARF4 (ARF GTPase 4) | 0.94 | 1.03 | 1.1 |
| ADCY7 (adenylate cyclase 7) | 0.75 | 0.66 | 0.88 |
| INA (internexin neuronal intermediate filament protein alpha) | 1.19 | 0.68 | 0.57 |
| PHF7 (PHD finger protein 7) | 1.01 | 0.95 | 0.94 |
| CDC42SE2 (CDC42 small effector 2) | 0.87 | 1.02 | 1.17 |
| TMEM202 (transmembrane protein 202) | 1 | 0.77 | 0.77 |
| BET1L (Bet1 golgi vesicular membrane trafficking protein like) | 1.83 | 0.77 | 0.42 |
| WDR89 (WD repeat domain 89) | 1.1 | 0.92 | 0.84 |
| SOX17 (SRY-box transcription factor 17) | 1.01 | 1.05 | 1.04 |
| SLC10A6 | 1.02 | 0.98 | 0.96 |
| OTUD6A (OTU deubiquitinase 6A) | 0.92 | 0.55 | 0.6 |
| TDRD7 (tudor domain containing 7) | 0.98 | 0.5 | 0.51 |
| MAGEE1 (MAGE family member E1) | 1.06 | 0.94 | 0.89 |
| AGO4 (argonaute RISC component 4) | 1.13 | 0.79 | 0.7 |
| UBE2S (ubiquitin conjugating enzyme E2 S) | 1.24 | 0.77 | 0.62 |
| KCND2 (potassium voltage-gated channel subfamily D member 2) | 1.07 | 0.91 | 0.85 |
| ATP5PD (ATP synthase peripheral stalk subunit d) | 0.95 | 0.99 | 1.04 |
| GAST (gastrin) | 0.95 | 0.84 | 0.88 |
| SELENOW (selenoprotein W) | 1.17 | 0.75 | 0.64 |
| CYP1A2 (cytochrome P450 family 1 subfamily A member 2) | 1.04 | 0.84 | 0.81 |
| SCAMP3 | 0.67 | 0.62 | 0.92 |
| FGF14 (fibroblast growth factor 14) | 1.03 | 0.68 | 0.66 |
| SUOX (sulfite oxidase) | 1.12 | 0.36 | 0.32 |
| PYDC2 (pyrin domain containing 2) | 1.05 | 0.81 | 0.77 |
| COL9A3 (collagen type IX alpha 3 chain) | 1.25 | 0.6 | 0.48 |
| XKRY (XK related, Y-linked (pseudogene)) | 1.16 | 0.79 | 0.68 |
| COL26A1 (collagen type XXVI alpha 1 chain) | 1.1 | 0.9 | 0.82 |
| ZFP3 (ZFP3 zinc finger protein) | 1 | 1 | 1 |
| ZC3H12A (zinc finger CCCH-type containing 12A) | 1.14 | 1 | 0.88 |
| CCM2 (CCM2 scaffold protein) | 0.85 | 0.56 | 0.66 |
| TSR3 (TSR3 ribosome maturation factor) | 1.03 | 0.92 | 0.89 |
| SMARCD1 (SWI/SNF related BAF chromatin remodeling complex subunit D1) | 0.75 | 0.6 | 0.8 |
| PIGO (phosphatidylinositol glycan anchor biosynthesis class O) | 1.14 | 1.05 | 0.92 |
| ZNF137P (zinc finger protein 137, pseudogene) | 0.88 | 0.74 | 0.84 |
| ABRAXAS1 (abraxas 1, BRCA1 A complex subunit) | 1.1 | 0.85 | 0.77 |
| PCDHB12 (protocadherin beta 12) | 1.6 | 0.88 | 0.55 |
| NLGN3 (neuroligin 3) | 1 | 1.04 | 1.04 |
| PCDHB3 (protocadherin beta 3) | 1.22 | 0.73 | 0.6 |
| SLC67A1 | 0.67 | 0.36 | 0.54 |
| RBM15 (RNA binding motif protein 15) | 0.78 | 0.43 | 0.55 |
| FLT3 (fms related receptor tyrosine kinase 3) | 1.16 | 0.94 | 0.81 |
| STYXL2 (serine/threonine/tyrosine interacting like 2) | 1.12 | 0.96 | 0.86 |
| RFC3 (replication factor C subunit 3) | 1.01 | 0.92 | 0.91 |
| PRH1 (proline rich protein HaeIII subfamily 1) | 0.9 | 0.66 | 0.73 |
| NTRK1 (neurotrophic receptor tyrosine kinase 1) | 0.86 | 0.72 | 0.84 |
| RUFY4 (RUN and FYVE domain containing 4) | 0.88 | 0.72 | 0.82 |
| FUBP3 (far upstream element binding protein 3) | 1.25 | 1.05 | 0.84 |
| CAPN5 (calpain 5) | 1.18 | 0.78 | 0.66 |
| BSDC1 (BSD domain containing 1) | 1 | 0.8 | 0.8 |
| NUBPL (NUBP iron-sulfur cluster assembly factor, mitochondrial) | 1.17 | 0.9 | 0.77 |
| EID2B (EP300 interacting inhibitor of differentiation 2B) | 1.08 | 0.28 | 0.26 |
| TIMM22 (translocase of inner mitochondrial membrane 22) | 0.92 | 0.94 | 1.02 |
| DLL3 (delta like canonical Notch ligand 3) | 1.16 | 0.78 | 0.67 |
